The assay deals with Influenza A virus non-structural protein 1 (NS1), strain A/Puerto Rico/8/1934(H1N1) (Influenza A virus A/Puerto Rico/8/1934(H1N1)) (UniProt P03496). The assay is described as follows: affinity purification with mass spectrometry.

Chains of the proteins cited; added tags and fusions are not shown.
UniProt P03496: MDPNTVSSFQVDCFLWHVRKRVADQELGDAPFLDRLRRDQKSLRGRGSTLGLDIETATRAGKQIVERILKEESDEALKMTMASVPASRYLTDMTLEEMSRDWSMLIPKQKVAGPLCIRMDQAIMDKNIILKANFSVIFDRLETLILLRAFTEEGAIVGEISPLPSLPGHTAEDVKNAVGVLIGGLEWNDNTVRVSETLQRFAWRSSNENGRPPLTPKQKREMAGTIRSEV

Results are given in words; binding and its absence hold for the method and conditions named. Binding seen in cells or lysates may run through a third protein. A yes stands for co-enrichment or nearness to the bait. Other partners may have been found.

B1: Cirhin (protein, UniProt Q969X6 1-686)
chain: MGEFKVHRVRFFNYVPSGIRCVAYNNQSNRLAVSRTDGTVEIYNLSANYFQEKFFPGHESRATEALCWAEGQRLFSAGLNGEIMEYDLQALNIKYAMDAFGGPIWSMAASPSGSQLLVGCEDGSVKLFQITPDKIQFERNFDRQKSRILSLSWHPSGTHIAAGSIDYISVFDVKSGSAVHKMIVDRQYMGVSKRKCIVWGVAFLSDGTIISVDSAGKVQFWDSATGTLVKSHLIANADVQSIAVADQEDSFVVGTAEGTVFHFQLVPVTSNSSEKQWVRTKPFQHHTHDVRTVAHSPTALISGGTDTHLVFRPLMEKVEVKNYDAALRKITFPHRCLISCSKKRQLLLFQFAHHLELWRLGSTVATGKNGDTLPLSKNADHLLHLKTKGPENIICSCISPCGSWIAYSTVSRFFLYRLNYEHDNISLKRVSKMPAFLRSALQILFSEDSTKLFVASNQGALHIVQLSGGSFKHLHAFQPQSGTVEAMCLLAVSPDGNWLAASGTSAGVHVYNVKQLKLHCTVPAYNFPVTAMAIAPNTNNLVIAHSDQQVFEYSIPDKQYTDWSRTVQKQGFHHLWLQRDTPITHISFHPKRPMHILLHDAYMFCIIDKSLPLPNDKTLLYNPFPPTNESDVIRRRTAHAFKISKIYKPLLFMDLLDERTLVAVERPLDDIIAQLPPPIKKKKFGT
Take B1: the binding entry is reported as “binds”.

B2: Ribosome production factor 2 homolog (protein, UniProt Q9H7B2 1-306)
chain: MDTLDRVVKPKTKRAKRFLEKREPKLNENIKNAMLIKGGNANATVTKVLKDVYALKKPYGVLYKKKNITRPFEDQTSLEFFSKKSDCSLFMFGSHNKKRPNNLVIGRMYDYHVLDMIELGIENFVSLKDIKNSKCPEGTKPMLIFAGDDFDVTEDYRRLKSLLIDFFRGPTVSNIRLAGLEYVLHFTALNGKIYFRSYKLLLKKSGCRTPRIELEEMGPSLDLVLRRTHLASDDLYKLSMKMPKALKPKKKKNISHDTFGTTYGRIHMQKQDLSKLQTRKMKGLKKRPAERITEDHEKKSKRIKKN
On to B2, for which the binding entry was “binds”.

B3: RNA-binding protein 14 (protein, UniProt Q96PK6 1-669)
chain: MKIFVGNVDGADTTPEELAALFAPYGTVMSCAVMKQFAFVHMRENAGALRAIEALHGHELRPGRALVVEMSRPRPLNTWKIFVGNVSAACTSQELRSLFERRGRVIECDVVKDYAFVHMEKEADAKAAIAQLNGKEVKGKRINVELSTKGQKKGPGLAVQSGDKTKKPGAGDTAFPGTGGFSATFDYQQAFGNSTGGFDGQARQPTPPFFGRDRSPLRRSPPRASYVAPLTAQPATYRAQPSVSLGAAYRAQPSASLGVGYRTQPMTAQAASYRAQPSVSLGAPYRGQLASPSSQSAAASSLGPYGGAQPSASALSSYGGQAAAASSLNSYGAQGSSLASYGNQPSSYGAQAASSYGVRAAASSYNTQGAASSLGSYGAQAASYGAQSAASSLAYGAQAASYNAQPSASYNAQSAPYAAQQAASYSSQPAAYVAQPATAAAYASQPAAYAAQATTPMAGSYGAQPVVQTQLNSYGAQASMGLSGSYGAQSAAAATGSYGAAAAYGAQPSATLAAPYRTQSSASLAASYAAQQHPQAAASYRGQPGNAYDGAGQPSAAYLSMSQGAVANANSTPPPYERTRLSPPRASYDDPYKKAVAMSKRYGSDRRLAELSDYRRLSESQLSFRRSPTKSSLDYRRLPDAHSDYARYSGSYNDYLRAAQMHSGYQRRM
On to B3, for which the binding entry is “binds”.

B4: RNA-binding protein 34 (protein, UniProt P42696 1-430)
chain: MALEGMSKRKRKRSVQEGENPDDGVRGSPPEDYRLGQVASSLFRGEHHSRGGTGRLASLFSSLEPQIQPVYVPVPKQTIKKTKRNEEEESTSQIERPLSQEPAKKVKAKKKHTNAEKKLADRESALASADLEEEIHQKQGQKRKNSQPGVKVADRKILDDTEDTVVSQRKKIQINQEEERLKNERTVFVGNLPVTCNKKKLKSFFKEYGQIESVRFRSLIPAEGTLSKKLAAIKRKIHPDQKNINAYVVFKEESAATQALKRNGAQIADGFRIRVDLASETSSRDKRSVFVGNLPYKVEESAIEKHFLDCGSIMAVRIVRDKMTGIGKGFGYVLFENTDSVHLALKLNNSELMGRKLRVMRSVNKEKFKQQNSNPRLKNVSKPKQGLNFTSKTAEGHPKSLFIGEKAVLLKTKKKGQKKSGRPKKQRKQK
As for B4, the binding entry is “binds”.

B5: Ribosome production factor 1 (protein, UniProt Q9H9Y2 1-349)
chain: MAKAGDKSSSSGKKSLKRKAAAEELQEAAGAGDGATENGVQPPKAAAFPPGFSISEIKNKQRRHLMFTRWKQQQRKEKLAAKKKLKKEREALGDKAPPKPVPKTIDNQRVYDETTVDPNDEEVAYDEATDEFASYFNKQTSPKILITTSDRPHGRTVRLCEQLSTVIPNSHVYYRRGLALKKIIPQCIARDFTDLIVINEDRKTPNGLILSHLPNGPTAHFKMSSVRLRKEIKRRGKDPTEHIPEIILNNFTTRLGHSIGRMFASLFPHNPQFIGRQVATFHNQRDYIFFRFHRYIFRSEKKVGIQELGPRFTLKLRSLQKGTFDSKYGEYEWVHKPREMDTSRRKFHL
With B5, the binding entry is recorded as “binds”.

B6: Ankycorbin (protein, UniProt Q9P0K7 1-980)
chain: MKSLKAKFRKSDTNEWNKNDDRLLQAVENGDAEKVASLLGKKGASATKHDSEGKTAFHLAAAKGHVECLRVMITHGVDVTAQDTTGHSALHLAAKNSHHECIRKLLQSKCPAESVDSSGKTALHYAAAQGCLQAVQILCEHKSPINLKDLDGNIPLLLAVQNGHSEICHFLLDHGADVNSRNKSGRTALMLACEIGSSNAVEALIKKGADLNLVDSLGYNALHYSKLSENAGIQSLLLSKISQDADLKTPTKPKQHDQVSKISSERSGTPKKRKAPPPPISPTQLSDVSSPRSITSTPLSGKESVFFAEPPFKAEISSIRENKDRLSDSTTGADSLLDISSEADQQDLLSLLQAKVASLTLHNKELQDKLQAKSPKEAEADLSFDSYHSTQTDLGPSLGKPGETSPPDSKSSPSVLIHSLGKSTTDNDVRIQQLQEILQDLQKRLESSEAERKQLQVELQSRRAELVCLNNTEISENSSDLSQKLKETQSKYEEAMKEVLSVQKQMKLGLVSPESMDNYSHFHELRVTEEEINVLKQDLQNALEESERNKEKVRELEEKLVEREKGTVIKPPVEEYEEMKSSYCSVIENMNKEKAFLFEKYQEAQEEIMKLKDTLKSQMTQEASDEAEDMKEAMNRMIDELNKQVSELSQLYKEAQAELEDYRKRKSLEDVTAEYIHKAEHEKLMQLTNVSRAKAEDALSEMKSQYSKVLNELTQLKQLVDAQKENSVSITEHLQVITTLRTAAKEMEEKISNLKEHLASKEVEVAKLEKQLLEEKAAMTDAMVPRSSYEKLQSSLESEVSVLASKLKESVKEKEKVHSEVVQIRSEVSQVKREKENIQTLLKSKEQEVNELLQKFQQAQEELAEMKRYAESSSKLEEDKDKKINEMSKEVTKLKEALNSLSQLSYSTSSSKRQSQQLEALQQQVKQLQNQLAECKKQHQEVISVYRMHLLYAVQGQMDEDVQKVLKQILTMCKNQSQKK
Take B6: the binding entry is on record as “binds”.

B7: Putative RNA-binding protein 15 (protein, UniProt Q96T37 1-977)
chain: MRTAGRDPVPRRSPRWRRAVPLCETSAGRRVTQLRGDDLRRPATMKGKERSPVKAKRSRGGEDSTSRGERSKKLGGSGGSNGSSSGKTDSGGGSRRSLHLDKSSSRGGSREYDTGGGSSSSRLHSYSSPSTKNSSGGGESRSSSRGGGGESRSSGAASSAPGGGDGAEYKTLKISELGSQLSDEAVEDGLFHEFKRFGDVSVKISHLSGSGSGDERVAFVNFRRPEDARAAKHARGRLVLYDRPLKIEAVYVSRRRSRSPLDKDTYPPSASVVGASVGGHRHPPGGGGGQRSLSPGGAALGYRDYRLQQLALGRLPPPPPPPLPRDLERERDYPFYERVRPAYSLEPRVGAGAGAAPFREVDEISPEDDQRANRTLFLGNLDITVTESDLRRAFDRFGVITEVDIKRPSRGQTSTYGFLKFENLDMSHRAKLAMSGKIIIRNPIKIGYGKATPTTRLWVGGLGPWVPLAALAREFDRFGTIRTIDYRKGDSWAYIQYESLDAAHAAWTHMRGFPLGGPDRRLRVDFADTEHRYQQQYLQPLPLTHYELVTDAFGHRAPDPLRGARDRTPPLLYRDRDRDLYPDSDWVPPPPPVRERSTRTAATSVPAYEPLDSLDRRRDGWSLDRDRGDRDLPSSRDQPRKRRLPEESGGRHLDRSPESDRPRKRHCAPSPDRSPELSSSRDRYNSDNDRSSRLLLERPSPIRDRRGSLEKSQGDKRDRKNSASAERDRKHRTTAPTEGKSPLKKEDRSDGSAPSTSTASSKLKSPSQKQDGGTAPVASASPKLCLAWQGMLLLKNSNFPSNMHLLQGDLQVASSLLVEGSTGGKVAQLKITQRLRLDQPKLDEVTRRIKVAGPNGYAILLAVPGSSDSRSSSSSAASDTATSTQRPLRNLVSYLKQKQAAGVISLPVGGNKDKENTGVLHAFPPCEFSQQFLDSPAKALAKSEEDYLVMIIVRGFGFQIGVRYENKKRENLALTLL
For the molecule B7, the binding result is reported as “binds”.

B8: UPF0027 protein C22orf28 (protein, UniProt Q9Y3I0 1-505)
chain: MSRSYNDELQFLEKINKNCWRIKKGFVPNMQVEGVFYVNDALEKLMFEELRNACRGGGVGGFLPAMKQIGNVAALPGIVHRSIGLPDVHSGYGFAIGNMAAFDMNDPEAVVSPGGVGFDINCGVRLLRTNLDESDVQPVKEQLAQAMFDHIPVGVGSKGVIPMNAKDLEEALEMGVDWSLREGYAWAEDKEHCEEYGRMLQADPNKVSARAKKRGLPQLGTLGAGNHYAEIQVVDEIFNEYAAKKMGIDHKGQVCVMIHSGSRGLGHQVATDALVAMEKAMKRDKIIVNDRQLACARIASPEGQDYLKGMAAAGNYAWVNRSSMTFLTRQAFAKVFNTTPDDLDLHVIYDVSHNIAKVEQHVVDGKERTLLVHRKGSTRAFPPHHPLIAVDYQLTGQPVLIGGTMGTCSYVLTGTEQGMTETFGTTCHGAGRALSRAKSRRNLDFQDVLDKLADMGIAIRVASPKLVMEEAPESYKNVTDVVNTCHDAGISKKAIKLRPIAVIKG
For the molecule B8, the binding result is given as “binds”.

B9: RNA-binding protein 28 (protein, UniProt Q9NW13 1-759)
chain: MAGLTLFVGRLPPSARSEQLEELFSQVGPVKQCFVVTEKGSKACRGFGYVTFSMLEDVQRALKEITTFEGCKINVTVAKKKLRNKTKEKGKNENSECPKKEPKAKKAKVADKKARLIIRNLSFKCSEDDLKTVFAQFGAVLEVNIPRKPDGKMRGFGFVQFKNLLEAGKALKGMNMKEIKGRTVAVDWAVAKDKYKDTQSVSAIGEEKSHESKHQESVKKKGREEEDMEEEENDDDDDDDDEEDGVFDDEDEEEENIESKVTKPVQIQKRAVKRPAPAKSSDHSEEDSDLEESDSIDDGEELAQSDTSTEEQEDKAVQVSNKKKRKLPSDVNEGKTVFIRNLSFDSEEEELGELLQQFGELKYVRIVLHPDTEHSKGCAFAQFMTQEAAQKCLLAASPENEAGGLKLDGRQLKVDLAVTRDEAAKLQTTKVKKPTGTRNLYLAREGLIRAGTKAAEGVSAADMAKRERFELLKHQKLKDQNIFVSRTRLCLHNLPKAVDDKQLRKLLLSATSGEKGVRIKECRVMRDLKGVHGNMKGQSLGYAFAEFQEHEHALKALRLINNNPEIFGPLKRPIVEFSLEDRRKLKMKELRIQRSLQKMRSKPATGEPQKGQPEPAKDQQQKAAQHHTEEQSKVPPEQKRKAGSTSWTGFQTKAEVEQVELPDGKKRRKVLALPSHRGPKIRLRDKGKVKPVHPKKPKPQINQWKQEKQQLSSEQVSRKKAKGNKTETRFNQLVEQYKQKLLGPSKGAPLAKRSKWFDS
B9: the binding entry is “binds”.
